No constants are given. Whether binding was seen depends on the method and setting. Binding calls can cover weak binding; strength is not graded here. Tags and fused reporters may be left off the sequences shown.
Target: T1, Flag-HA tagged PFKP (human) (UniProt Q01813)
T1 sequence: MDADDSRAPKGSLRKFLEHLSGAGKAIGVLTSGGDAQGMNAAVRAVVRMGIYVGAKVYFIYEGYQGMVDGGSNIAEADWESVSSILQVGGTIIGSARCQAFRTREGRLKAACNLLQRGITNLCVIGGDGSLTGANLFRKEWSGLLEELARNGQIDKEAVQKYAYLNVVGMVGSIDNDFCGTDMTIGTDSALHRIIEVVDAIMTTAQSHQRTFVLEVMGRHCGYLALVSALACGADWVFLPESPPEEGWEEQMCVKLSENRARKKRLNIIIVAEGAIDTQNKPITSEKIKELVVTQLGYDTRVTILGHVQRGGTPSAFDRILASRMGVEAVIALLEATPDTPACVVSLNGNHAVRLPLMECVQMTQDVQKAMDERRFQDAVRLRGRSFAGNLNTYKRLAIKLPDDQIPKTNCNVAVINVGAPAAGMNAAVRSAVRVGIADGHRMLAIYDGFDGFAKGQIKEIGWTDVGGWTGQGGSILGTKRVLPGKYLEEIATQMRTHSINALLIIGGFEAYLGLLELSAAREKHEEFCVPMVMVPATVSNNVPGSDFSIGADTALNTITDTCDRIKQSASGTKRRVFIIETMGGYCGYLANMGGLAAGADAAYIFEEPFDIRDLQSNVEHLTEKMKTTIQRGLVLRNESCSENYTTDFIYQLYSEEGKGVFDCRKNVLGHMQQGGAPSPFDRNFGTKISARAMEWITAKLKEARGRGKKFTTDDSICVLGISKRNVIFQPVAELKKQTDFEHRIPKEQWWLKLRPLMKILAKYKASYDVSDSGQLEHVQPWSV
Test: pull-down; in vitro protein-protein interaction assay: Flag-HA tagged PFKP or domains purified by Flag IP and held on FLAG M2 beads, incubated with 50 ng tagged AMPK complex in 1 mL lysis buffer (20 mM Tris pH 7.4, 150 mM NaCl, 1 mM EDTA, 1 mM EGTA, 1% Triton X-100) for 1 h at room temperature, washed thrice, western blot; both purified

- binding: binds
Substance: His-tagged AMPKα1/β1/γ2 (complex)

From article PMC9156709
